# Percent effect of library compounds

Protein sequences, listed by entry. Tags and fused reporters are not part of them. Residues count along the entry.
UniProt Q4DA54, 1-478: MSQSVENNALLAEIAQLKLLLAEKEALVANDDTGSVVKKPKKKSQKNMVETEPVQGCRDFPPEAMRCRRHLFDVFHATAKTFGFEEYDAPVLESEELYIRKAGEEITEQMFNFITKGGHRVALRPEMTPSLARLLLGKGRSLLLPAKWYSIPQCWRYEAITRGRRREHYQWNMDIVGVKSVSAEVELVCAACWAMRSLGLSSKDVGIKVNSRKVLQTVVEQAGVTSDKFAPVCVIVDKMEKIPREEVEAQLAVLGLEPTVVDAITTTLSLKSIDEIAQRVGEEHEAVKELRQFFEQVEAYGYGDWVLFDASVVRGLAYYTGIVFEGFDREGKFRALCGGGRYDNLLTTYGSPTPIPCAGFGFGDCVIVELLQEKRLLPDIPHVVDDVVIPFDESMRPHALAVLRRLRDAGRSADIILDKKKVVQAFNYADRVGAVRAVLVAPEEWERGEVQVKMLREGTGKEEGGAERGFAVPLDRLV
UniProt P9WNZ1, whole entry: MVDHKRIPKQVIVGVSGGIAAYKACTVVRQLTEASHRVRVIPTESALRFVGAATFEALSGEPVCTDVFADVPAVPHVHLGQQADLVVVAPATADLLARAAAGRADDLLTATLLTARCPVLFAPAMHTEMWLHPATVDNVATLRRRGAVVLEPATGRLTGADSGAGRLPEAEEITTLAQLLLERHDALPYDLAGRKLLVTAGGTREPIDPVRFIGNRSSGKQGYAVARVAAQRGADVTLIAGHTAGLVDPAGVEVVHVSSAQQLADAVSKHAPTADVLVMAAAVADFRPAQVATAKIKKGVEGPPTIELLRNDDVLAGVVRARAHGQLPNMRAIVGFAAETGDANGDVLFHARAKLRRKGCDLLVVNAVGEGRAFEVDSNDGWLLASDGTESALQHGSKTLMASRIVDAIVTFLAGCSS

The filed quantity is “Percent Effect” (%). How 0% and 100% were set is not recorded. Most values in the screen are low, and negative values occur. The compounds are a random part of those screened. Two or more numbers in one place are separate tests of the same structure; such repeats can differ widely. A dash means the value is not listed here; it may have been measured.

Toxoplasma: 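Assay of Toxoplasma gondii numbers, read through their beta-galactosidase reporter with a colour substrate. Tested at 10 µM. Higher reads as fewer parasites (inferred from which compounds were picked for retests). Of about 67,000 compounds tested this way, about 260 (0.38%) reached 50% or more in at least one test.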
TcHisRS: 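Enzyme assay of histidyl-tRNA synthetase; the read-out is not stated. Target: Histidine-tRNA ligase, Trypanosoma cruzi CL Brener (UniProt Q4DA54). Concentration: 30 µM. Higher reads as stronger inhibition (inferred: compounds with an IC50 in retests scored well above the rest). About 69,000 compounds were tested under these conditions; 0.045% (about 31) showed 50% or more at least once.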
CoaBC: 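Enzyme assay of CoaBC with a phosphate dye (Biomol Green) read at 650 nm. Target: Coenzyme A biosynthesis protein CoaBC, Mycobacterium tuberculosis (UniProt P9WNZ1). Tested at 30 µM. Direction is inferred from only a few compounds that gave an IC50; most scored high, so higher reads as stronger inhibition. Most strong results did not repeat in a second test. About 67,000 compounds were tested under these conditions; 0.06% (about 40) showed 50% or more at least once.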
Leishmania in macrophages: 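Cell assay of Leishmania donovani living inside macrophages; the read-out is not stated. Compounds at 30 µM. The record gives no direction; compounds that gave an IC50 in retests scored well above the rest, so higher reads as stronger inhibition. Size under these conditions: about 69,000 compounds, about 1,000 of them at 50% or above in at least one test.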

compound,Toxoplasma,TcHisRS,CoaBC,Leishmania in macrophages
c1cc2c(cc1-c1noc3c1CN(C1CCSCC1)CC3)OCO2,3.772%,17.28%,-2.211%,2.994%
[H][C@@]12CN(C(=O)c3cnccn3)C[C@]1([H])C(=O)N(Cc1cccc(C)c1)C2,17.52%,-,-,10.68%
CC(NC(=O)Nc1nncs1)C(=O)NC1CCCC1 (centres undefined),-16.61%,3.704%,-0.2457%,12.1%
COc1c(C2CCCN2C(=O)c2ccnc(N(C)C)c2)c(C)nn1C (centres undefined),-5.493%,1.132%,5.897%,-18.52%
COc1ccccc1C(=O)N1CC2(COC(C)(C)OC2)C1,3.99%,4.124%,-1.48%,0.009881% and 4.488%
Cc1occc1C(=O)N1CCC2(CC1)CN(Cc1nccs1)CCO2,-,0%,0.4894%,-
CN(Cc1csc(-c2ccccc2)n1)C(=O)CCn1ccccc1=O,-,10.34%,1.599%,23.13%
Cc1nn(C2CCS(=O)(=O)C2)c(C)c1CC(=O)NCc1ccccc1Cl (centres undefined),13.02%,4.663%,-2.357%,-16.61%
CCC(CN1CCCC1)NC(=O)Cc1c(C)[nH]c2c(C)cc(C)cc12.O=C(O)CC(O)(CC(=O)O)C(=O)O (centres undefined),29.01%,-,-,16.58%
CN(Cc1cccnc1)CC1CN(C(=O)C2CC2)Cc2nccn2C1 (centres undefined),-,9.852%,1.523%,-
CCCN1CCCC2(CCN(C(=O)CCCn3cncn3)C2)C1=O (centres undefined),-3.673%,2.041%,9.524%,11.53%
c1ccc(O[C@H]2COCCN(Cc3c[nH]c4ccccc34)C2)cc1,26.8%,14.85%,1.58%,13.76%
NC(=O)C1CCN(C(=O)Cc2cnc(-c3c(Cl)cccc3Cl)s2)CC1,-12.98%,6.931%,1.205%,-36.65%
COC(C)C(=O)NS(=O)(=O)c1cccc2cc(C)cnc12 (centres undefined),11.2%,4.865%,-2.273%,15.99%
Cc1cc(NC(=O)N2CCC[C@@H]2CO)nn1-c1cccc(Cl)c1,-8.403%,4.762%,1.106%,12.91%
CCOC(C)c1noc(CN2CCN(CC3CCCC3)CC2)n1 (centres undefined),-5.294%,4.516%,1.449%,15.1%
COc1ccc(CN2C[C@@H]3COC[C@H](N4CCN(C)CC4)[C@@H]3C2)cc1,-,3.061%,1.607%,-
c1coc(CNCC2Cn3nncc3CO2)c1 (centres undefined),5.21%,9.945%,2.228%,55.14%
O=C(NCCCc1ccco1)c1cnc(N2CCOCC2)nc1,11.83%,1.22%,4.051%,-0.2706% and 25.58%
Cc1ccc(C(=O)NC2CCN(S(C)(=O)=O)CC2)c(=O)[nH]1,-8.574%,7.035%,1.942%,59.71%
COc1cc(C(C)NCc2c[nH]nc2C)ccc1OCCO (centres undefined),-3.167%,1.807%,-0.6098%,19.11%
O=C(C1CC2(CCNCC2)CN1)N1CCN(c2cccc(Cl)c2Cl)CC1 (centres undefined),16.19%,3.279%,-40.34%,24.39%
O=C1COc2cc(C(=O)NS(=O)(=O)c3ccccc3F)ccc2N1,-5.336%,3.788%,0.8347%,-21.56%
COC[C@@]12CCO[C@@H]1CCN(Cc1sccc1C)C2,-,2.062%,4.187%,-
Cc1nc(C)c(CN2CCOC(Cc3ccccc3Cl)C2)nc1C (centres undefined),10.52%,8.333%,-3.317%,17.37%
CC1(C(N)=O)CN(CC2CCC2)CCO1 (centres undefined),-1.854%,1.515%,5.672%,10.31%
Cc1cnc2n(c1=O)CC(C(=O)Nc1ccon1)CS2 (centres undefined),-10.33%,0%,3.817%,9.723% and 7.985%
CCc1nc(CN(C)c2nccc(N3CCCC(O)C3)n2)no1 (centres undefined),8.824%,5.473%,5.185%,-3.175%
O=C(Nc1ccccc1F)C1CN(C(=O)c2ccc3c(c2)OCO3)C1,-15.14%,2.424%,1.788%,7.331%
[H][C@@]12CCCCN(CC(N)=O)[C@]1([H])CN(C(=O)c1ccccc1OC)C2,8.592%,-,-,-33.88%
COCC(=O)N1CCC(c2cncc(-c3cccc(F)c3)n2)CC1,-24.68%,5.993%,1.363%,3.658%
CCn1cc(CN(C)S(=O)(=O)c2ccc(C(C)C)cc2)cn1,71.72%,0.8696%,8.776%,-25.12%
Cc1nn(C)c(C)c1OCC(=O)NCC(O)c1ccco1 (centres undefined),-42.55%,1.064%,-10.84%,16.02%
CN1CCC(NCC2(O)CCCN(Cc3ccccc3F)C2=O)CC1 (centres undefined),-5.716%,4.348%,-16.33%,-12.63%
Fc1cccc(Cl)c1Cn1ncnc1CSCCN1CCCC1,-46.81%,13.6%,4.978%,-3.399%
[H][C@@]12C[C@@H](OCCOC)CN1CCN(C(=O)c1ccc(C)nc1)C2,1.175%,-,-,-35.2%
c1cnnc(NCC2CN(Cc3cccc4c3OCCO4)CCO2)c1 (centres undefined),13.55%,5.344%,-0.7229%,34.16%
Cc1nc(CN(C)C2CCN(Cc3nc4ccccc4n3C)C2)no1 (centres undefined),4.709%,6.215%,1.044%,33.48%
CC(=O)N1CCCC1c1nc(CN(C)C(=O)C(C)C)cc(N(C)C)n1 (centres undefined),-1.203%,4.286%,7.763%,14.69%
O=C(c1cccn2ccnc12)N1CCCN(c2cccnn2)CC1,-1.595%,-3.396%,8.205%,13.75%
Cc1cnn(CC2CCCN2CC(=O)Nc2nccs2)c1 (centres undefined),14.46%,1.994%,-5.63%,10.74%
Cc1ccc(N2CC[C@H]3OCC[C@@]3(C(=O)NCC3CC3)C2)nn1,-,4%,1.976%,-
NCCc1nc(N[C@@H](CO)c2ccccc2)c2ccccc2n1,6.586%,8.235%,0.2457%,7.922%
CC1c2ncc(CN3CCN(C)CC3)n2CCN1Cc1ccc(F)cc1.O=C(O)C(F)(F)F.O=C(O)C(F)(F)F.O=C(O)C(F)(F)F (centres undefined),11.07%,-,-,4.016%
CC(C)n1nc(CN2CCOCC2)c2c1CN(C(=O)c1ccno1)C2.O=C(O)C(F)(F)F,2.431%,-,-,19.39%
Cc1nc(N)ncc1C(=O)N1CCCC(CCc2ccc(F)c(F)c2)C1 (centres undefined),-24.97%,9.453%,7.654%,6.718%
Cc1cc(C(=O)N2C[C@@H]3[C@@H](CN(C)CCc4ccccn4)[C@@H]3C2)c(C)o1,-,13.29%,4.715%,-
COC1COC2(CCN(c3ccc(C#N)cc3)CC2)C1 (centres undefined),-,1.97%,2.538%,-
Cc1cc(N(C)C)nc(C2CCCN2)n1.Cl.Cl (centres undefined),1.357%,-,-,23.71%
O=C(O)C(F)(F)F.O=C(O)C(F)(F)F.c1ccc(CNCC2Cn3nnc(-c4ccncc4)c3CO2)nc1 (centres undefined),25.45%,-,-,27.33% and 7.405%
CC(C)(C)NC(=O)CNc1ccc(C#N)c(C(F)(F)F)c1,-12.19%,0%,5.578%,3.3%
O=C1CC(c2ccccc2Br)c2sc(N3CCOCC3)nc2N1 (centres undefined),19.44%,16.15%,0.1266%,-3.682%
Cc1ccc(-c2nc(CCNC(=O)NCC(C)(C)C(N)=O)co2)cc1,-5.14%,5.085%,1.828%,33%
CCOc1cccc2c1OCC(C(=O)NS(=O)(=O)c1cncc(Br)c1)=C2,-30.33%,0.2865%,1.118%,-12.08%
c1cncc(N2CCCn3nnc(CN4CCCCC4)c3C2)c1,-,-0.5587%,4.242%,-
COc1ccc(CN2CCn3c(C(=O)N(C)C)cnc3C2)cc1.O=C(O)C(F)(F)F,-40.54%,-,-,5.417%
CCc1nc(Cn2c(=O)n(C)c3ccccc32)no1,4.139%,7.514%,-1.489%,1.514%
O=C(O)C(F)(F)F.[H][C@@]12CCN(c3nnc(C)s3)C[C@]1([H])O[C@@H](C(=O)N1CCOCC1)C2,-3.927%,-,-,1.459%
CNc1ncc(CN(C)C(=O)c2ccc(C3CCCO3)s2)cn1 (centres undefined),-4.795%,7.895%,-,12.77%

7 of the entries, repeated:

O=C1CC(c2ccccc2Br)c2sc(N3CCOCC3)nc2N1 (centres undefined) read Toxoplasma: 19.44%; TcHisRS: 16.15%; CoaBC: 0.1266%; Leishmania in macrophages: -3.682%.
O=C(C1CC2(CCNCC2)CN1)N1CCN(c2cccc(Cl)c2Cl)CC1 (centres undefined) read Toxoplasma: 16.19%; TcHisRS: 3.279%; CoaBC: -40.34%; Leishmania in macrophages: 24.39%.
CN1CCC(NCC2(O)CCCN(Cc3ccccc3F)C2=O)CC1 (centres undefined) read Toxoplasma: -5.716%; TcHisRS: 4.348%; CoaBC: -16.33%; Leishmania in macrophages: -12.63%.
Cc1nc(CN(C)C2CCN(Cc3nc4ccccc4n3C)C2)no1 (centres undefined) read Toxoplasma: 4.709%; TcHisRS: 6.215%; CoaBC: 1.044%; Leishmania in macrophages: 33.48%.
Cc1nn(C)c(C)c1OCC(=O)NCC(O)c1ccco1 (centres undefined) read Toxoplasma: -42.55%; TcHisRS: 1.064%; CoaBC: -10.84%; Leishmania in macrophages: 16.02%.
CCc1nc(CN(C)c2nccc(N3CCCC(O)C3)n2)no1 (centres undefined) read Toxoplasma: 8.824%; TcHisRS: 5.473%; CoaBC: 5.185%; Leishmania in macrophages: -3.175%.
COC(C)C(=O)NS(=O)(=O)c1cccc2cc(C)cnc12 (centres undefined) read Toxoplasma: 11.2%; TcHisRS: 4.865%; CoaBC: -2.273%; Leishmania in macrophages: 15.99%.

The values are deposited in ChEMBL (CHEMBL3988442, “University of Dundee, Small-Polar-MMV Screening Library” (2021)).